Test results reported in PMC10140301.

Tested on: DV-Hjc (Hjc/UPF0102 homolog)
Experiment: EMSA
Settings: 5 mM EDTA, no divalent metal, 50 mM Tris pH 8.0, 50 mM NaCl, 10 mM DTT, 15 C, 30 min, 80 nM FAM probe, DV-Hjc 329 nM, 10% native TBE PAGE, recombinant protein, protein details: His-MBP fusion, tag removed with TEV protease
[1] = label: 5' FAM, single-stranded DNA

| Sequence | binding result [1] | also measured |
| --- | --- | --- |
| AGGCCATGGCTGATATCGCA (double strand) [DS 20 nt] |  | binding result (label: 5' FAM on strand 1, letters put together from the description): binds |
| AGGCCATGGCTGATATCGCA [SS 20 nt] | binds |  |
| AGGCCATGGCTGATATCGCATAGGCATTCGAGCTCCGTCG (double strand) [DS 40 nt] |  | binding result (label: 5' FAM on strand 1): binds |
| AGGCCATGGCTGATATCGCATAGGCATTCGAGCTCCGTCG [SS 40 nt] | binds |  |

For at least one entry, the source does not settle the construct or the ends of the probe. At least one verdict rests on a figure or table, not on a statement of the authors.
